Some entries share one result that the patent states for a list of compounds.
How the values were obtained:
[1] = test system: herpes simplex virus I (HSV-I); assay: Influences of drugs on virus-induced CPE (antiviral effective rate, MTT), HSV-I; assay type: cell-based; settings: Vero cells, 100TCID50, drug at nearly the maximum non-cytotoxic concentration
[2] = test system: enterovirus EV71; assay: Influences of drugs on virus-induced CPE (antiviral effective rate, MTT), EV71; assay type: cell-based; settings: EV71, Vero cells, 100TCID50, drug at nearly the maximum non-cytotoxic concentration

SMILES: COc1cc(C2OCC3C(c4ccc5c(c4)OCO5)OCC23)ccc1OC1OC(C(=O)O)C(O)C(O)C1O [Compound III, 33,34-Methylenedioxy phillygenin-8-O-β-D-glucuronide]
- antiviral effective rate (ER %) ([1]; listed as compound III): exceeding 90%
- antiviral effective rate (ER %) ([2]; listed as compound III): exceeding 90%

SMILES: COc1ccc(C2OCC3C(c4ccc(OC5OC(C(=O)O)C(O)C(O)C5O)c(O)c4)OCC23)cc1OC (stereo not drawn) [Compound II]
- antiviral effective rate (ER %) ([1]; listed as compound II): exceeding 90%
- antiviral effective rate (ER %) ([2]; listed as compound II): exceeding 90%

SMILES: COc1cc(C2OCC3C(c4ccc(OC5OC(C(=O)O)C(O)C(O)C5O)c(OC)c4)OCC23)ccc1O (stereo not drawn) [Compound I]
- antiviral effective rate (ER %) ([1]; listed as compound I): exceeding 90%
- antiviral effective rate (ER %) ([2]; listed as compound I): exceeding 90%
